Laboratory results taken from paper PMC7819943, “Rice protein-binding microarrays: a tool to detect cis-acting elements near promoter regions in rice”.
Some of the results follow.

Biological target: T1, OsSMF1 (Oryza sativa, UniProt Q6ZLB0 1-436)
T1 sequence: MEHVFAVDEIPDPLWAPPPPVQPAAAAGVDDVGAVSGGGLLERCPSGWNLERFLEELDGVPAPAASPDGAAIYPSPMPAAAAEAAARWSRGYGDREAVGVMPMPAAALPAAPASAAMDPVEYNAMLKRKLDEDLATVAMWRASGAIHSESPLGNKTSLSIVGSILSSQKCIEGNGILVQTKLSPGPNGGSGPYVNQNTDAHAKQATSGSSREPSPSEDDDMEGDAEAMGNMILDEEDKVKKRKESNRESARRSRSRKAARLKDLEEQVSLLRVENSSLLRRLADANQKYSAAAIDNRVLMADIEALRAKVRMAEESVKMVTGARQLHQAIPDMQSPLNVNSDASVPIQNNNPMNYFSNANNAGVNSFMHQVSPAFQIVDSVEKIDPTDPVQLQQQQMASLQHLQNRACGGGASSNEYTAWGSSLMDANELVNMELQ
Assay: protein-binding microarray (RPBM); PBS, 2% BSA, 51.3 ng/ul salmon testes DNA, 50 uM zinc acetate, 200 nM TF, 25 C, 1 h; high values mean tight binding
Details: protein: recombinant; tags: N-terminal polyhistidine and DsRed monomer fusion (pET32a); chain copies: 2; label: CyDye5-dUTP incorporated in the synthesized complementary strand; 3' TTTTT single-stranded linker to array surface; dsDNA, one strand shown
Summary of the method: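 Using Ni–NTA, transcription factors fused N-terminally to polyhistidine and DsRed were purified after expression in E. coli BL21-CodonPlus. These were incubated at 200 nM with a blocked, double-stranded custom Agilent array for 1 h at 25 °C in a buffer containing 50 µM zinc acetate, and the array was washed. The binding signal is per-feature fluorescence intensity (arbitrary units) on an Axon 4000B scanner.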

Sequence	binding signal
AACGTTGGATCTTTATTTTCGCAGGTGGATATGACACCCACGGAGTCACCTAGTGCAG	3160 fluorescence intensity (a.u.)
TCCAGGCCGCATTGGCGTCGAGTCATCGACCAATCCAATCCGGAGTCACCTAGTGCAG	5760 fluorescence intensity (a.u.)
AGGGCTATCTGCTATCTCATCTTGTATGACAAAGATTGATCGGAGTCACCTAGTGCAG	65500 fluorescence intensity (a.u.)
GAAAAGTCCACATGCTACGTGCTAGGGTTAACAACGTTTTCGGAGTCACCTAGTGCAG	15800 fluorescence intensity (a.u.)
GCCTATCCTGCCCTCTCTACTACCACCCTTATCGATCTCTCGGAGTCACCTAGTGCAG	3220 fluorescence intensity (a.u.)
CAAACTCCACTTGATTACTTCATCGTGCCGACGTCGACACCGGAGTCACCTAGTGCAG	4000 fluorescence intensity (a.u.)
CTCGTAAGTAATGACACTATGATGACATATATTTTCAGTGCGGAGTCACCTAGTGCAG	4280 fluorescence intensity (a.u.)
GCTGGCTGGATTGCCACGTGTATGTCACGTAGGATAAAACCGGAGTCACCTAGTGCAG	14300 fluorescence intensity (a.u.)
TGTACATTTCTACTGACCTGCCACGTGGCACTTTACATTCCGGAGTCACCTAGTGCAG	34600 fluorescence intensity (a.u.)
GCTCTGATATTTGATGAGGTTAAGCTTGTGCATGATGCAGCGGAGTCACCTAGTGCAG	3200 fluorescence intensity (a.u.)
ACCAACGGCCCACCGGCTTCCACGTACCCAACCAAACAAGCGGAGTCACCTAGTGCAG	4360 fluorescence intensity (a.u.)
CCGACGACCGGCCATAGCTCTCACACACAGGTCAGACCCCCGGAGTCACCTAGTGCAG	3780 fluorescence intensity (a.u.)
TGGATTTATATATCTTGATTTGTCATTAAGAATATCATGGCGGAGTCACCTAGTGCAG	4260 fluorescence intensity (a.u.)
CCCTGTTTTCATCACTGACGTAGCTAGCAACTAGCTTCCACGGAGTCACCTAGTGCAG	6440 fluorescence intensity (a.u.)
CTGTGCCGCTCGCTCGTTCGCTCTGTGACTGTACGTACATCGGAGTCACCTAGTGCAG	4590 fluorescence intensity (a.u.)
TCCTCACCACTCCGTCCTCACTGCAAACGGCTGCGGCCCCCGGAGTCACCTAGTGCAG	19900 fluorescence intensity (a.u.)
TTTTAGATCACATGCATCTGTGCCATATCATCACCCACTACGGAGTCACCTAGTGCAG	5790 fluorescence intensity (a.u.)
TCGTATGACCGTCAGCGAAAATGATAGAATAACGCTATGACGGAGTCACCTAGTGCAG	3150 fluorescence intensity (a.u.)
CGTGGTATCAAACGTCGACATTTTATAAACTTGATCAAATCGGAGTCACCTAGTGCAG	4220 fluorescence intensity (a.u.)
TGGTGCGATCGATCGATCGAGAGTTGTGTCACCTTGAAGACGGAGTCACCTAGTGCAG	3320 fluorescence intensity (a.u.)
CGGCCCAGCCTAGTAGCCCACGTGTGCCATCACTCATCCGCGGAGTCACCTAGTGCAG	6220 fluorescence intensity (a.u.)

Sequence	binding signal
AGAAAACAAGAGAGGAGCAAACACGTACTCTGAATGAACGCGGAGTCACCTAGTGCAG	4420 fluorescence intensity (a.u.)
AGAATGTTATACGGCGCTCGATCTATTATTCCGCACTCTACGGAGTCACCTAGTGCAG	27100 fluorescence intensity (a.u.)
CAATCCTCCTCCCTCGCCGCTCGCCGTGCTCCCGCTCCCGCGGAGTCACCTAGTGCAG	3220 fluorescence intensity (a.u.)
AGACAACACATGAAACCGGTTCCATTCCTTCCAATTCATCCGGAGTCACCTAGTGCAG	3180 fluorescence intensity (a.u.)
GGTTGAAGTTAATACGTGCCAAATCTATAACTTTATTCCGCGGAGTCACCTAGTGCAG	3300 fluorescence intensity (a.u.)
TCTCAGCCGTCGCCCCTCACACACGCACACACACTCTCTCCGGAGTCACCTAGTGCAG	3500 fluorescence intensity (a.u.)
GAAACCCGGCCACATCACTCCTTCCCTATGCTCCAGTGAGCGGAGTCACCTAGTGCAG	8040 fluorescence intensity (a.u.)
GTACTGTCACTTTGTCTTCCCCTACGCCACTTCCCACTGACGGAGTCACCTAGTGCAG	3280 fluorescence intensity (a.u.)
CACCCCACGTCAGCAAATACGGAGGCGCGGGGTTGACGGCCGGAGTCACCTAGTGCAG	17500 fluorescence intensity (a.u.)
ACTGTGGTGATGGTGTCTTTTGTTTGTCTTCTGAATTCAGCGGAGTCACCTAGTGCAG	3760 fluorescence intensity (a.u.)
ATGTGATGACATGATGACACGATCTGAACCTACGATTTCCCGGAGTCACCTAGTGCAG	6360 fluorescence intensity (a.u.)
GCCCAGGAAATAATGGATTTATGGCCCTGCAAGCAATTCACGGAGTCACCTAGTGCAG	3160 fluorescence intensity (a.u.)
CCCGTGGACCCCACCTGTCATCCCCAACCTCCGGCCAGCTCGGAGTCACCTAGTGCAG	3940 fluorescence intensity (a.u.)
TGTTAATCTGCTGTGATGACTTGTCATCTTCCACTCTGTCCGGAGTCACCTAGTGCAG	11400 fluorescence intensity (a.u.)
ATAAACGTGCATCCCAGCCTCTCTGTTATTATGGCTATTTCGGAGTCACCTAGTGCAG	3620 fluorescence intensity (a.u.)
GGTTGCTGCTGCTGCTGCTGCGGCGCTGGGGTTAGGGTTTCGGAGTCACCTAGTGCAG	3680 fluorescence intensity (a.u.)
CTGCTGCTGGTGCTTAATTTTGCTCGGGTTCGTGGGGTTGCGGAGTCACCTAGTGCAG	3560 fluorescence intensity (a.u.)
TGTGGAGTCCACGTGGGACTTAGCCGCCACATCAATAAAACGGAGTCACCTAGTGCAG	9160 fluorescence intensity (a.u.)
CGTTTGCCAAGCCATATTGGAGTTCGTTTGTGGTGCTTCCCGGAGTCACCTAGTGCAG	3800 fluorescence intensity (a.u.)
CAGGAATTGAACTATTAAGATCCATTATGTTGCTCTAAAACGGAGTCACCTAGTGCAG	3310 fluorescence intensity (a.u.)
AGCAAGGTGGTACTAAACTCCACATGCATGCCATTCCATGCGGAGTCACCTAGTGCAG	3890 fluorescence intensity (a.u.)

Three entries from above, in markdown.

| Sequence | binding signal |
| --- | --- |
| AGAATGTTATACGGCGCTCGATCTATTATTCCGCACTCTACGGAGTCACCTAGTGCAG | 27100 fluorescence intensity (a.u.) |
| CCCGTGGACCCCACCTGTCATCCCCAACCTCCGGCCAGCTCGGAGTCACCTAGTGCAG | 3940 fluorescence intensity (a.u.) |
| ATAAACGTGCATCCCAGCCTCTCTGTTATTATGGCTATTTCGGAGTCACCTAGTGCAG | 3620 fluorescence intensity (a.u.) |
